From paper PMC13294675 come the findings set out here.

What all share (test): two-hybrid; Gal4-based Y2H, pGBKT7 and pGADT7 in S. cerevisiae PJ69-4A; drop tests on SD -Leu/-Trp/-His with 3-AT (0.1 to 30 mM; 0.2 mM in Fig. 4F), 28°C
The target in assay [1] is full-length AtβKNL2 (yeast two-hybrid fusion) (Arabidopsis thaliana).
The target of assay [2] is Gal4BD-βKNL2(50–154) (Arabidopsis thaliana).
In assay [3] the target is Gal4BD-βKNL2(50–218) (Arabidopsis thaliana).

No constants are given. Whether binding was seen depends on the method and setting. For part of these data: Binding calls can cover weak binding; strength is not graded here. For part of these data: Sequences can lack the tags named with a protein.

B1: full-length AtαKNL2 (yeast two-hybrid fusion) (protein, UniProt F4KCE9 1-598)
chain: MTEPNLDEDGSKSSFQKTVVLRDWWLIKCPKEFEGKQFGVAGFEESVETRAMRVFTSSPITKALDVFTLLASDGIYITLRGFLNKERVLKNGFNPEISREFIFGFPPCWERVCNSCFEGDSFGTDVNTVPSTIEKACPPILSPCKYSNRNLKDNPAESREKSNVTETDIAEINDKGGSGARDIKTARRRSLHLQIKRILESSKVRKTANDGDHGSEFLNTAKRGDVERDGCEVINNEDSEWKLDESEVQNLCNDGDNGSEGFIKAKSSDVEKDKSEAIDNDVISPAVGSGIKHTGADNVDKVTSASATGESLTSEQQNGLLVTTASPHSLLKDLAKSSKPEKKGISKKSGKILRSDDNVVDPMNYSGTKVKSAENKRKIDASKLQSPTSNVAEHSKEGLNNAKSNDVEKDVCVAINNEVISPVKGFGKRLSGTDVERLTSKNATKESLTSVQRKGRVKVSKAFQDPLSKGKSKKSEKTLQSNSNVVEPMNHFRSEAEEAEENLSWEKIKRKIDFDVEVTPEKKVKQQKTNAASTDSLGQKRSRSGRVLVSSLEFWRNQIPVYDMDRNLIQVKDGSETNSAPSKGKGSDSRKRRNLKIK
Consider B1, for which the binding entry in assay [1] is “no binding”.

B2: Gal4AD-αKNL2(1–118) (domain or fragment, UniProt F4KCE9 1-118)
chain: MTEPNLDEDGSKSSFQKTVVLRDWWLIKCPKEFEGKQFGVAGFEESVETRAMRVFTSSPITKALDVFTLLASDGIYITLRGFLNKERVLKNGFNPEISREFIFGFPPCWERVCNSCFE
With B2, the binding entry in assay [2] is “binds”; in assay [3], “no binding”.
